Holding throughout (assay): proximity labelling; BioID-MS: MAC-tagged bait (BirA) in stable Flp-In T-REx 293 cells, tetracycline and 50 µM biotin for 24 h; lysate with Benzonase, sonicated; Strep-Tactin beads; LC-MS; high-confidence interactions by SAINTexpress BFDR < 0.01 and a GFP BioID contaminant database
Experiment [1] deals with CRX (human) (UniProt O43186).
In experiment [2] the target is T1, DPRX (human) (UniProt A6NFQ7).
T1 sequence: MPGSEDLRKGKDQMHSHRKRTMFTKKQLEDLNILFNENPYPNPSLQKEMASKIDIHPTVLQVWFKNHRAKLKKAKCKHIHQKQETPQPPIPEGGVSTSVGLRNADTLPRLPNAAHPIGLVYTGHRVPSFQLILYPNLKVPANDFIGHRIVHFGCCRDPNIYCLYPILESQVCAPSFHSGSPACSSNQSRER

Amino acid sequences for entries named in this document (tags omitted).
UniProt O43186: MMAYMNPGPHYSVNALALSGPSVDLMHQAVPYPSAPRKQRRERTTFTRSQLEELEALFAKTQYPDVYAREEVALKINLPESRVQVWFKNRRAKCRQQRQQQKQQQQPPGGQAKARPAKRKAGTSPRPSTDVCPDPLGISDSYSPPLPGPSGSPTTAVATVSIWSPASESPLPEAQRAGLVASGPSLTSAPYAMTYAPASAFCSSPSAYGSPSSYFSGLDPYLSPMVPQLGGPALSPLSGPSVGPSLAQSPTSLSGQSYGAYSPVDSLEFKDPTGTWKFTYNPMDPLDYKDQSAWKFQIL
UniProt Q9Y6Q9: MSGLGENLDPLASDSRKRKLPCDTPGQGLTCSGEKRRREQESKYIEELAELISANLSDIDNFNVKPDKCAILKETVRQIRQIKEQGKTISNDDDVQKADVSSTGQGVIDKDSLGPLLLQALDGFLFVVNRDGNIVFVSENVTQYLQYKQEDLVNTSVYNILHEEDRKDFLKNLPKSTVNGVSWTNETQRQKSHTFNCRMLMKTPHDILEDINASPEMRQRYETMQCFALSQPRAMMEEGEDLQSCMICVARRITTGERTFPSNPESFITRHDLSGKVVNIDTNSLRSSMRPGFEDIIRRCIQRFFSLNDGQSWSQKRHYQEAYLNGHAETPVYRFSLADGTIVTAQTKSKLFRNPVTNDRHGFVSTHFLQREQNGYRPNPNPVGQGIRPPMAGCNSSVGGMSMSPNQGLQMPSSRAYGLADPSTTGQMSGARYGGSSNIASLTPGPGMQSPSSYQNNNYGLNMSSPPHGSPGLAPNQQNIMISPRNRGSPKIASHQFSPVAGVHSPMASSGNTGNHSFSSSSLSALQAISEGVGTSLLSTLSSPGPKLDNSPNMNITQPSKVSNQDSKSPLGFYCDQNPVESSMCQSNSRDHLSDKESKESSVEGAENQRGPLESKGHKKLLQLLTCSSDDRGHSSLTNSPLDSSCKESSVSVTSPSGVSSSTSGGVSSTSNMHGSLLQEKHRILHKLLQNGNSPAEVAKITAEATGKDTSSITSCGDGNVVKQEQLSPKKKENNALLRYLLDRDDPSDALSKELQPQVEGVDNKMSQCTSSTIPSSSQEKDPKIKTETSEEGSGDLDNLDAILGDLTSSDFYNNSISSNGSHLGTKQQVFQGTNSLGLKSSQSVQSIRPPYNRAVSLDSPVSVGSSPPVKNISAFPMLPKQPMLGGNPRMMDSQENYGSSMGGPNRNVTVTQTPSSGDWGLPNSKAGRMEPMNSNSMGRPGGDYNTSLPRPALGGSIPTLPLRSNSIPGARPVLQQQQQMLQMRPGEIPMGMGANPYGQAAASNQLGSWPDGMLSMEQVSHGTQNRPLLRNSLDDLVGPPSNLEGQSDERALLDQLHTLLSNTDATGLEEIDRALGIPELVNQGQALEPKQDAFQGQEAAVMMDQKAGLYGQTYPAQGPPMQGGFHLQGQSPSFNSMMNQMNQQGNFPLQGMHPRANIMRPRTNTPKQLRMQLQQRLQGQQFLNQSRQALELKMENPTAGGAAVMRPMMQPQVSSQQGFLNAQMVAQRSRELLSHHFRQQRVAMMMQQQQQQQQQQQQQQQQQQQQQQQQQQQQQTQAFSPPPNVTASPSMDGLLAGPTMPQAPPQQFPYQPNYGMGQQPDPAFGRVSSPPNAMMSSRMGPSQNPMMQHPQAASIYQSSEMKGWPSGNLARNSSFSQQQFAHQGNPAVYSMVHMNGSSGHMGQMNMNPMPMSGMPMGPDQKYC
UniProt Q96RN5: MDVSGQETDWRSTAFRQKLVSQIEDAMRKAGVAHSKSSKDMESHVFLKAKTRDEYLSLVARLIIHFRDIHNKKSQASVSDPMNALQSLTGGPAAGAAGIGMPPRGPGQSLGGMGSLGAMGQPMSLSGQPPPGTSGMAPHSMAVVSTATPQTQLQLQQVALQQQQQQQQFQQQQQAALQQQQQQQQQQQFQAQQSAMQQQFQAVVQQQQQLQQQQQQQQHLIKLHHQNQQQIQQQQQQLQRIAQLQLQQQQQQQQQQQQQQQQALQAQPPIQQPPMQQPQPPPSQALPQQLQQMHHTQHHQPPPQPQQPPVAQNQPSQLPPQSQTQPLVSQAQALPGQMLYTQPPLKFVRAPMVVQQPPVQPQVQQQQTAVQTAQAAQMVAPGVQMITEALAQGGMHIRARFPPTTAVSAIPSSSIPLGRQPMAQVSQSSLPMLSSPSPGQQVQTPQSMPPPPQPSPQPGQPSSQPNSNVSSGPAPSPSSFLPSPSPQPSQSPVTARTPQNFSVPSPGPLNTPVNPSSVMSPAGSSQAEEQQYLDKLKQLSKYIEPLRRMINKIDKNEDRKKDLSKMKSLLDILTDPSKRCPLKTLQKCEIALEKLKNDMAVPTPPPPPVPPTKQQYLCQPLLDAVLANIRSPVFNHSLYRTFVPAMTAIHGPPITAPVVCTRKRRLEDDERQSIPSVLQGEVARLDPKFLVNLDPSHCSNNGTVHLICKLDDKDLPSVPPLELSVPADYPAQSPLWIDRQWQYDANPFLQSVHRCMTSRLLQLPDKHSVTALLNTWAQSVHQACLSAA
UniProt Q92793: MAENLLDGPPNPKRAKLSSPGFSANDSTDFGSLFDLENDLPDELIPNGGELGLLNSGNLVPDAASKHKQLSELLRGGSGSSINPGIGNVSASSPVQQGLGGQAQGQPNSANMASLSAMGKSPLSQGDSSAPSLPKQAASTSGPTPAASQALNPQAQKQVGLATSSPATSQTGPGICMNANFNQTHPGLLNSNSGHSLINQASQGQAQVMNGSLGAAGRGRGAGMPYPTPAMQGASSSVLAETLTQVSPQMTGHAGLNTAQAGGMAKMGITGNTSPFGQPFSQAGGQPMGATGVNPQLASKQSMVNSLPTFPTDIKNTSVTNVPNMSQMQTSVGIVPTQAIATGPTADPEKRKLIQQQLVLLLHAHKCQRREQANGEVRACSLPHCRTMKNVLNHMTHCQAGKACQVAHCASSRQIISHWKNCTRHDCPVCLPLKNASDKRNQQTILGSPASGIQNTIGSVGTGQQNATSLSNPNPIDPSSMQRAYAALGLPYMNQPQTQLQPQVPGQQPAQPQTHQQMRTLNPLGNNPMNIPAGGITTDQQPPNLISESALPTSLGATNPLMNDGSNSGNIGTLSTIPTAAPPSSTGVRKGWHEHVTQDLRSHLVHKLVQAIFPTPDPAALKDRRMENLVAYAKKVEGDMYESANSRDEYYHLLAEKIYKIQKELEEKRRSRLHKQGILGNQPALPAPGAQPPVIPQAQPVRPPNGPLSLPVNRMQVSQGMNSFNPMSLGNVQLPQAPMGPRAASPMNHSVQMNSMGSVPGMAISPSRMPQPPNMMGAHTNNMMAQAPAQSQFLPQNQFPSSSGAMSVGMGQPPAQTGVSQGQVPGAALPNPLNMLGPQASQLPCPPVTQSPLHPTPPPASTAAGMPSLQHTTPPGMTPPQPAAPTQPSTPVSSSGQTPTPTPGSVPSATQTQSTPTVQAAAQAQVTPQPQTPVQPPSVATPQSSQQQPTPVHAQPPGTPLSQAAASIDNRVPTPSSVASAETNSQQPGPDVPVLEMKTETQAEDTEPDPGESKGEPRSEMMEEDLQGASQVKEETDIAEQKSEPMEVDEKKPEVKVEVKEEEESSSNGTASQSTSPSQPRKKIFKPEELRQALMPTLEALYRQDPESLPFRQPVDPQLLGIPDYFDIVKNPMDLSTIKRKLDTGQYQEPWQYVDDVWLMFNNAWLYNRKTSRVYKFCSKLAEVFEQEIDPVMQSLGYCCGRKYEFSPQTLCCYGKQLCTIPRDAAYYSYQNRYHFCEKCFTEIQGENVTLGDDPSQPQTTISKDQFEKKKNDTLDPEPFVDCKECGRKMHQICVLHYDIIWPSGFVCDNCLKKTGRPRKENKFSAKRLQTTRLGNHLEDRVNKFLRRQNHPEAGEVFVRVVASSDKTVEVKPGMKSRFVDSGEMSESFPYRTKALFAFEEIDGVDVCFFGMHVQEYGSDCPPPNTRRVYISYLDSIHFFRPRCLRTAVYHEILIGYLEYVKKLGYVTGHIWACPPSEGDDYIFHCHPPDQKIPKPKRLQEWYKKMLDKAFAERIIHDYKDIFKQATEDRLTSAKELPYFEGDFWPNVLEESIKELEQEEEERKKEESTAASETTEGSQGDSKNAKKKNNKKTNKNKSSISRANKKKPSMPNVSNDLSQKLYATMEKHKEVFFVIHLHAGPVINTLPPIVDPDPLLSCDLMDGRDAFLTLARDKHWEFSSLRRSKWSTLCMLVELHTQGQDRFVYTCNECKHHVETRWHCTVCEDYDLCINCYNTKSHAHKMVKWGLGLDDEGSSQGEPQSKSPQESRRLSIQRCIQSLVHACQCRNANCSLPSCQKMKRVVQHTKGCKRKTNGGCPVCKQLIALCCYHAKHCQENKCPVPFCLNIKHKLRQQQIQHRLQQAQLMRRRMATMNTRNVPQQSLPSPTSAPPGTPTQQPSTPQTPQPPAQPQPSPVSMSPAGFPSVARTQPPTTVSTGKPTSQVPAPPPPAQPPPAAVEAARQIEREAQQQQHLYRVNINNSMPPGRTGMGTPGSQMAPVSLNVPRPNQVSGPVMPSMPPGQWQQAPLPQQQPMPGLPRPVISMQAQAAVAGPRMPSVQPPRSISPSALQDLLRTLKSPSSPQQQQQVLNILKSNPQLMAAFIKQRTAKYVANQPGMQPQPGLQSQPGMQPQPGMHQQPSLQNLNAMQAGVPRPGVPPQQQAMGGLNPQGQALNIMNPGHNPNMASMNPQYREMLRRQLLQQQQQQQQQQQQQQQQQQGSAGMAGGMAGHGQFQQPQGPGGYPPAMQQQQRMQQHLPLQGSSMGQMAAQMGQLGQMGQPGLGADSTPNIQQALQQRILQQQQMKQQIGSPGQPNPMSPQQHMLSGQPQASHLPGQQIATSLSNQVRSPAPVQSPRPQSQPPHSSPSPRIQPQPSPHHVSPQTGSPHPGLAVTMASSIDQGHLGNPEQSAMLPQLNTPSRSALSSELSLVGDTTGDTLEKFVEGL
UniProt Q15596: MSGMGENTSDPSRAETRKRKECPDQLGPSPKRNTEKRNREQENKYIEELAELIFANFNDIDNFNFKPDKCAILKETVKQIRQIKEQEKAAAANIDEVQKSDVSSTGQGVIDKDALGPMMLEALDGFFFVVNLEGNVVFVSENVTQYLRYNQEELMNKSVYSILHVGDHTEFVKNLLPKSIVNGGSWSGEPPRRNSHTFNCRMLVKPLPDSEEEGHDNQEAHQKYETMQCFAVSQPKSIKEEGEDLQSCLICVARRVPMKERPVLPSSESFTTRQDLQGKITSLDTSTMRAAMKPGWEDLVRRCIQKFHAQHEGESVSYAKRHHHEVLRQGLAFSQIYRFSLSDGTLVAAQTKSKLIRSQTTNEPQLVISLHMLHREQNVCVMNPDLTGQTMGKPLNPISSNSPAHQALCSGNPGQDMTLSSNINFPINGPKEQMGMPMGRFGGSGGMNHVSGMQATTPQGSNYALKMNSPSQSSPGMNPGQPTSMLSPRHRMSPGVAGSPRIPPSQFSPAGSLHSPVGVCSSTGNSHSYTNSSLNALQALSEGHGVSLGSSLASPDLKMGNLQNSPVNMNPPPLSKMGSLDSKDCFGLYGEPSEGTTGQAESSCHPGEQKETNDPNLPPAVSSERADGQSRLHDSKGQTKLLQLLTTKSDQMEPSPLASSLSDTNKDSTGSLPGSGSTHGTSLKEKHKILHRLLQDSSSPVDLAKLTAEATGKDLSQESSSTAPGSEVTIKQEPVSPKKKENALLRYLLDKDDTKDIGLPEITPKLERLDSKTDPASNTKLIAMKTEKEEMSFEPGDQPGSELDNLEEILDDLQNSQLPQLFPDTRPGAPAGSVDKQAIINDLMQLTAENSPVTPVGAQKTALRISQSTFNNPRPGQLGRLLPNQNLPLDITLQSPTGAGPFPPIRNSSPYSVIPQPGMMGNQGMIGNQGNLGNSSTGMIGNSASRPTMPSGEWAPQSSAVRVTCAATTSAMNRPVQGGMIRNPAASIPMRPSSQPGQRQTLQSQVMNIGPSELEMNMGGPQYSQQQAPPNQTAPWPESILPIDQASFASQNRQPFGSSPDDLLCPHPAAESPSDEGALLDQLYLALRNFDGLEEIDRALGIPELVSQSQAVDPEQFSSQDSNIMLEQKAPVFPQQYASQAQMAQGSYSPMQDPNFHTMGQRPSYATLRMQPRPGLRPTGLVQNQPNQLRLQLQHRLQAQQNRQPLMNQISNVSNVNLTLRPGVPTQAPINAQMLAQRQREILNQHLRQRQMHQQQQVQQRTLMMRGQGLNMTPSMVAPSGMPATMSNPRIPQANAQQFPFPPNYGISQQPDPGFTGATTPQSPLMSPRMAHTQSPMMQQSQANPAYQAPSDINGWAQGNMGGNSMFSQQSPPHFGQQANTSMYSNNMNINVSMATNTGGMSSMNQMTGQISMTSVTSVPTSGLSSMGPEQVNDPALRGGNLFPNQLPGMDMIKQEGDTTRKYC

For experiment [3], the target named is T2, TPRX2 (human) (UniProt P0DV77).
T2 sequence: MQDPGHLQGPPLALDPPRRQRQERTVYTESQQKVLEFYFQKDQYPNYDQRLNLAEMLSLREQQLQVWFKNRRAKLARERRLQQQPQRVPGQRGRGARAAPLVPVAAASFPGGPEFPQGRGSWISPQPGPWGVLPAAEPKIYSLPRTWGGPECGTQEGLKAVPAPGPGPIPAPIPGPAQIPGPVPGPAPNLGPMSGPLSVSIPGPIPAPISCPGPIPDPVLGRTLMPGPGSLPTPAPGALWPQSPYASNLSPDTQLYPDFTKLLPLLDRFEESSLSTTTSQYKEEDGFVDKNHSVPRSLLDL

Experiment [4] deals with T3, ARGFX (human) (UniProt A6NJG6).
T3 sequence: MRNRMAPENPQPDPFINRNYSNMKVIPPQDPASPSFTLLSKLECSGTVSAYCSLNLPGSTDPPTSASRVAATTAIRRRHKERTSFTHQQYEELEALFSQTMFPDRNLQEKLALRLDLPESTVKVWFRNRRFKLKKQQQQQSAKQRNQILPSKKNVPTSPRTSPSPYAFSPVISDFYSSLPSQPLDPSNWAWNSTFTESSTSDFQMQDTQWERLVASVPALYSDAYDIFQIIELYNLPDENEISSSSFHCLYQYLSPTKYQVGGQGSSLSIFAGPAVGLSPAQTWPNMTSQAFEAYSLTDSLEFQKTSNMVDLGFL

Experiment [5] deals with OTX2 (human) (UniProt P32243).
Experiment [6] addresses KLF3 (human) (UniProt P57682).
The target in experiment [7] is CRX (human) (UniProt O43186). This is another data set of the same source.

For twelve molecules, binding results are on record in PMC10933267.

Where two headings read alike, the source gives them in different places. No constants are given. Whether binding was seen depends on the method and setting. In cells and extracts the contact can be indirect. A yes stands for co-enrichment or nearness to the bait. Other partners may have been found. For part of these data: A no says only that the protein was not detected with the bait.

With NCOA3 (from UniProt Q9Y6Q9 1-1424), the binding result in experiment [1] is listed as “binds”.
Take MED15 (from UniProt Q96RN5 1-788): the figures for the binding result in experiment [2], in experiment [1] and in experiment [3] were “no binding”, “binds” and “binds”, respectively.
Consider “CREB-binding protein (from UniProt Q92793 1-2442)”, for which the binding result was “binds” in experiment [4]; “binds” in experiment [5]; “no binding” in experiment [2]; “binds” in experiment [1]; “binds” in experiment [3].
For the molecule NCOA1 (from UniProt Q15788 1-1441), the binding result in experiment [1] is “binds”.
Turning to NCOA2 (from UniProt Q15596 1-1464), in experiment [1], the binding entry was “binds”.
In the case of HRNR (from UniProt Q86YZ3 1-2850), in experiment [2], the binding entry is “binds”.
Regarding E2F6 (from UniProt O75461 1-281), in experiment [1], the binding result is reported as “binds”.

B1: ZZZ3 (protein, UniProt Q8IYH5 1-903)
chain: MAASRSTRVTRSTVGLNGLDESFCGRTLRNRSIAHPEEISSNSQVRSRSPKKRPEPVPIQKGNNNGRTTDLKQQSTRESWVSPRKRGLSSSEKDNIERQAIENCERRQTEPVSPVLKRIKRCLRSEAPNSSEEDSPIKSDKESVEQRSTVVDNDADFQGTKRACRCLILDDCEKREIKKVNVSEEGPLNSAVVEEITGYLAVNGVDDSDSAVINCDDCQPDGNTKQNSIGSYVLQEKSVAENGDTDTQTSMFLDSRKEDSYIDHKVPCTDSQVQVKLEDHKIVTACLPVEHVNQLTTEPATGPFSETQSSLRDSEEEVDVVGDSSASKEQCKENTNNELDTSLESMPASGEPEPSPVLDCVSAQMMSLSEPQEHRYTLRTSPRRAAPTRGSPTKNSSPYRENGQFEENNLSPNETNATVSDNVSQSPTNPGEISQNEKGICCDSQNNGSEGVSKPPSEARLNIGHLPSAKESASQHITEEEDDDPDVYYFESDHVALKHNKDYQRLLQTIAVLEAQRSQAVQDLESLGRHQREALKNPIGFVEKLQKKADIGLPYPQRVVQLPEIVWDQYTHSLGNFEREFKNRKRHTRRVKLVFDKVGLPARPKSPLDPKKDGESLSYSMLPLSDGPEGSSSRPQMIRGRLCDDTKPETFNQLWTVEEQKKLEQLLIKYPPEEVESRRWQKIADELGNRTAKQVASRVQKYFIKLTKAGIPVPGRTPNLYIYSKKSSTSRRQHPLNKHLFKPSTFMTSHEPPVYMDEDDDRSCFHSHMNTAVEDASDDESIPIMYRNLPEYKELLQFKKLKKQKLQQMQAESGFVQHVGFKCDNCGIEPIQGVRWHCQDCPPEMSLDFCDSCSDCLHETDIHKEDHQLEPIYRSETFLDRDYCVSQGTSYNYLDPNYFPANR
As to B1, the binding entry in experiment [6] was “binds”.

B2: NR2C2 (protein, UniProt P49116 1-596)
chain: MTSPSPRIQIISTDSAVASPQRIQIVTDQQTGQKIQIVTAVDASGSPKQQFILTSPDGAGTGKVILASPETSSAKQLIFTTSDNLVPGRIQIVTDSASVERLLGKTDVQRPQVVEYCVVCGDKASGRHYGAVSCEGCKGFFKRSVRKNLTYSCRSNQDCIINKHHRNRCQFCRLKKCLEMGMKMESVQSERKPFDVQREKPSNCAASTEKIYIRKDLRSPLIATPTFVADKDGARQTGLLDPGMLVNIQQPLIREDGTVLLATDSKAETSQGALGTLANVVTSLANLSESLNNGDTSEIQPEDQSASEITRAFDTLAKALNTTDSSSSPSLADGIDTSGGGSIHVISRDQSTPIIEVEGPLLSDTHVTFKLTMPSPMPEYLNVHYICESASRLLFLSMHWARSIPAFQALGQDCNTSLVRACWNELFTLGLAQCAQVMSLSTILAAIVNHLQNSIQEDKLSGDRIKQVMEHIWKLQEFCNSMAKLDIDGYEYAYLKAIVLFSPDHPGLTSTSQIEKFQEKAQMELQDYVQKTYSEDTYRLARILVRLPALRLMSSNITEELFFTGLIGNVSIDSIIPYILKMETAEYNGQITGASL
B2: the binding entry in experiment [7] was “binds”.

B3: NR2C1 (protein, UniProt P13056 1-603)
chain: MATIEEIAHQIIEQQMGEIVTEQQTGQKIQIVTALDHNTQGKQFILTNHDGSTPSKVILARQDSTPGKVFLTTPDAAGVNQLFFTTPDLSAQHLQLLTDNSPDQGPNKVFDLCVVCGDKASGRHYGAVTCEGCKGFFKRSIRKNLVYSCRGSKDCIINKHHRNRCQYCRLQRCIAFGMKQDSVQCERKPIEVSREKSSNCAASTEKIYIRKDLRSPLTATPTFVTDSESTRSTGLLDSGMFMNIHPSGVKTESAVLMTSDKAESCQGDLSTLANVVTSLANLGKTKDLSQNSNEMSMIESLSNDDTSLCEFQEMQTNGDVSRAFDTLAKALNPGESTACQSSVAGMEGSVHLITGDSSINYTEKEGPLLSDSHVAFRLTMPSPMPEYLNVHYIGESASRLLFLSMHWALSIPSFQALGQENSISLVKAYWNELFTLGLAQCWQVMNVATILATFVNCLHNSLQQDKMSTERRKLLMEHIFKLQEFCNSMVKLCIDGYEYAYLKAIVLFSPDHPSLENMEQIEKFQEKAYVEFQDYITKTYPDDTYRLSRLLLRLPALRLMNATITEELFFKGLIGNIRIDSVIPHILKMEPADYNSQIIGHSI
Regarding B3, the binding result in experiment [7] was “binds”.

B4: ZNF423 (protein, UniProt Q2M1K9 1-1284)
chain: MHKKRVEEGEASDFSLAWDSSVTAAGGLEGEPECDQKTSRALEDRNSVTSQEERNEDDEDMEDESIYTCDHCQQDFESLADLTDHRAHRCPGDGDDDPQLSWVASSPSSKDVASPTQMIGDGCDLGLGEEEGGTGLPYPCQFCDKSFIRLSYLKRHEQIHSDKLPFKCTYCSRLFKHKRSRDRHIKLHTGDKKYHCHECEAAFSRSDHLKIHLKTHSSSKPFKCTVCKRGFSSTSSLQSHMQAHKKNKEHLAKSEKEAKKDDFMCDYCEDTFSQTEELEKHVLTRHPQLSEKADLQCIHCPEVFVDENTLLAHIHQAHANQKHKCPMCPEQFSSVEGVYCHLDSHRQPDSSNHSVSPDPVLGSVASMSSATPDSSASVERGSTPDSTLKPLRGQKKMRDDGQGWTKVVYSCPYCSKRDFNSLAVLEIHLKTIHADKPQQSHTCQICLDSMPTLYNLNEHVRKLHKNHAYPVMQFGNISAFHCNYCPEMFADINSLQEHIRVSHCGPNANPSDGNNAFFCNQCSMGFLTESSLTEHIQQAHCSVGSAKLESPVVQPTQSFMEVYSCPYCTNSPIFGSILKLTKHIKENHKNIPLAHSKKSKAEQSPVSSDVEVSSPKRQRLSASANSISNGEYPCNQCDLKFSNFESFQTHLKLHLELLLRKQACPQCKEDFDSQESLLQHLTVHYMTTSTHYVCESCDKQFSSVDDLQKHLLDMHTFVLYHCTLCQEVFDSKVSIQVHLAVKHSNEKKMYRCTACNWDFRKEADLQVHVKHSHLGNPAKAHKCIFCGETFSTEVELQCHITTHSKKYNCKFCSKAFHAIILLEKHLREKHCVFDAATENGTANGVPPMATKKAEPADLQGMLLKNPEAPNSHEASEDDVDASEPMYGCDICGAAYTMEVLLQNHRLRDHNIRPGEDDGSRKKAEFIKGSHKCNVCSRTFFSENGLREHLQTHRGPAKHYMCPICGERFPSLLTLTEHKVTHSKSLDTGTCRICKMPLQSEEEFIEHCQMHPDLRNSLTGFRCVVCMQTVTSTLELKIHGTFHMQKLAGSSAASSPNGQGLQKLYKCALCLKEFRSKQDLVKLDVNGLPYGLCAGCMARSANGQVGGLAPPEPADRPCAGLRCPECSVKFESAEDLESHMQVDHRDLTPETSGPRKGTQTSPVPRKKTYQCIKCQMTFENEREIQIHVANHMIEEGINHECKLCNQMFDSPAKLLCHLIEHSFEGMGGTFKCPVCFTVFVQANKLQQHIFAVHGQEDKIYDCSQCPQKFFFQTELQNHTMSQHAQ
For the molecule B4, the binding entry in experiment [6] is recorded as “binds”.

B5: TFAP4 (protein, UniProt Q01664 1-338)
chain: MEYFMVPTQKVPSLQHFRKTEKEVIGGLCSLANIPLTPETQRDQERRIRREIANSNERRRMQSINAGFQSLKTLIPHTDGEKLSKAAILQQTAEYIFSLEQEKTRLLQQNTQLKRFIQELSGSSPKRRRAEDKDEGIGSPDIWEDEKAEDLRREMIELRQQLDKERSVRMMLEEQVRSLEAHMYPEKLKVIAQQVQLQQQQEQVRLLHQEKLEREQQQLRTQLLPPPAPTHHPTVIVPAPPPPPSHHINVVTMGPSSVINSVSTSRQNLDTIVQAIQHIEGTQEKQELEEEQRRAVIVKPVRSCPEAPTSDTASDSEASDSDAMDQSREEPSGDGELP
Take B5: the binding result in experiment [7] is “binds”.
